{"sequences": {"note": "Chains of the proteins cited; added tags and fusions are not shown. Residues count along the entry.", "UniProt P21802, residues 22-821": "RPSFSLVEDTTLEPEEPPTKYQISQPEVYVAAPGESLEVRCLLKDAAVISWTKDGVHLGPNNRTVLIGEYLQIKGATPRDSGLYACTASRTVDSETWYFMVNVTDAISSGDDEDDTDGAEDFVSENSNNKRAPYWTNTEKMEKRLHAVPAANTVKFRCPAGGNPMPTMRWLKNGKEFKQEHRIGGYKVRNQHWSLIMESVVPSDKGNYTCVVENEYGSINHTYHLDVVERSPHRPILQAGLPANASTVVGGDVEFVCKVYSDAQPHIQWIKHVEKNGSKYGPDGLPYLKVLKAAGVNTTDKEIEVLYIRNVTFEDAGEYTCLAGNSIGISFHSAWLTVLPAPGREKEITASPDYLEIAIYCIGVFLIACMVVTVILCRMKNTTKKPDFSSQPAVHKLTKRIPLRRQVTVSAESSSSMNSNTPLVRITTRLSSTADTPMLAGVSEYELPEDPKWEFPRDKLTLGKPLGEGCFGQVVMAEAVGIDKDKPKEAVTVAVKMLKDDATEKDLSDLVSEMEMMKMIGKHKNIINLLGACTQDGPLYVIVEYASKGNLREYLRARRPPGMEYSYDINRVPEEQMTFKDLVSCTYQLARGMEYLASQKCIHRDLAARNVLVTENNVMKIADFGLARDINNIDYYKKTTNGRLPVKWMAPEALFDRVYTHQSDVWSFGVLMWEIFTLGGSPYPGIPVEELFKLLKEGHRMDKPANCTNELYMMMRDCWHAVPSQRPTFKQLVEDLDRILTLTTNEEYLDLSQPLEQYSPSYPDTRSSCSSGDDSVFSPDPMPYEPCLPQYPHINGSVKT"}, "source": "paper PMC11984394", "target": "T1, recombinant human SFRP1 protein (human) (UniProt Q8N474)", "T1 sequence": "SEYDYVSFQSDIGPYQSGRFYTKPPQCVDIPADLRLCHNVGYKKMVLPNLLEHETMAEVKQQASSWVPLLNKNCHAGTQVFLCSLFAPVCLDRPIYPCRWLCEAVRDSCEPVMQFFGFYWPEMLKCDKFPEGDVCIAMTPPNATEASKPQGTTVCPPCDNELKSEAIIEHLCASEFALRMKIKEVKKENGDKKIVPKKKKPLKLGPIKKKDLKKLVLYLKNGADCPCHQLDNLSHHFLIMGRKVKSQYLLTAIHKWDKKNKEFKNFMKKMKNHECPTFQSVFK", "test": "co-IP; SFRP1 IP and IgG groups derived from the IP-MS products (SW480 cells incubated with rhSFRP1 for 48 h); whole-cell lysate as input; Western blot; only the target purified", "note": "Results are given in words; binding and its absence hold for the method and conditions named. Binding seen in cells or lysates may run through a third protein. Some entries that bind do so weakly or less than the wild type.", "data": [{"substance": "FGFR2 receptor (from UniProt P21802 22-821)", "values": [{"measurement": "binding", "value": "binds"}]}]}
